This note sets out measurements from patent US6906179.

By UniProt entry, the sequences of proteins in these tests, tags left out. Where a name states a change or a piece, a line headed by the entry shows the natural chain unless it says otherwise. Residues count along the entry.
UniProt P84022: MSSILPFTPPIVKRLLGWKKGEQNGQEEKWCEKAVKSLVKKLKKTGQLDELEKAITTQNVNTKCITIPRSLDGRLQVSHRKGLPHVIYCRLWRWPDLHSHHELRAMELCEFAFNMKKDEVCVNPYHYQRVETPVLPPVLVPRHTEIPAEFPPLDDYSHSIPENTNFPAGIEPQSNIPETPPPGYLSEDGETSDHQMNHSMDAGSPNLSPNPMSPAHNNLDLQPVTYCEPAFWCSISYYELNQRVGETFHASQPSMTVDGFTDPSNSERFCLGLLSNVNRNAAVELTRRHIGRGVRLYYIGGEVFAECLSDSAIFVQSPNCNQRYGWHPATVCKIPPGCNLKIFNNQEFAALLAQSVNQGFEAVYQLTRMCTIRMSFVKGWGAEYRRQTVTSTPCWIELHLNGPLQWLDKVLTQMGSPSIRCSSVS
Smad3C (aa 231-424): residues 231-424 of P84022
UniProt P0A7C2: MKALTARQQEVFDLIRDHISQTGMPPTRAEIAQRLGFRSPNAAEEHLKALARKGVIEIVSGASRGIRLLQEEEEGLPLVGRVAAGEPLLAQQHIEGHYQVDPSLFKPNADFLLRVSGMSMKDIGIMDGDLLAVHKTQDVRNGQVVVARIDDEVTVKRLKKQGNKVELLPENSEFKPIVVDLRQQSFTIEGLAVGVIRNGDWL

Results are given in words; binding and its absence hold for the method and conditions named. For some of these results: Binding seen in cells or lysates may run through a third protein. Some entries that bind do so weakly or less than the wild type.

One assay has as its target Smad3 (UniProt P84022). In words: yeast two-hybrid; list of Smad3 interactors.
The target of another assay is Smad3C (aa 231-424) (UniProt P84022). Description: co-immunoprecipitation, transfected cells.
Assay [1] has as its target LexA-Smad1 (full length Smad1 fused in frame to the LexA DNA binding domain (1-202) in pEG202) (UniProt P0A7C2). Description: yeast two-hybrid; list of Smad1 interactors.

B1: FKBP25 (a prolyl-isomerase), clone S3+127 (enzyme, UniProt Q00688 100-224, looked up)
chain: SEETLDEGPPKYTKSVLKKGDKTNFPKKGDVVHCWYTGTLQDGTVFDTNIQTSAKKKKNAKPLSFKVGVGKVIRGWDEALLTMSKGEKARLEIEPEWAYGKKGQPDAKIPPNAKLTFEVELVDID
As to B1, the binding result with Smad3 is given as “binds”.

B2: HEF1 M2/C (aa 695-832) (protein, human, UniProt Q14511 695-832, looked up)
chain: TTNSGVSAQDRQLLCFYYDQCETHFISLLNAIDALFSCVSSAQPPRIFVAHSKFVILSAHKLVFIGDTLTRQVTAQDIRNKVMNSSNQLCEQLKTIVMATKMAALHYPSTTALQEMVHQVTDLSRNAQLFKRSLLEMA
Turning to B2, the binding entry in the assay with Smad3C (aa 231-424) was “binds”.

B3: HEF1 M2/M (aa 695-759) (protein, human, UniProt Q14511 695-759, looked up)
chain: TTNSGVSAQDRQLLCFYYDQCETHFISLLNAIDALFSCVSSAQPPRIFVAHSKFVILSAHKLVFI
On to B3, for which the binding entry in the assay with Smad3C (aa 231-424) is recorded as “binds”.

B4: RBP2 (an interactor of the tumor suppressor RB protein), clone S3+63 (protein, UniProt P29375 1248-1690, looked up)
chain: CLTERAMSWQDRARQALATDELSSALAKLSVLSQRMVEQAAREKTEKIISAELQKAAANPDLQGHLPSFQQSAFNRVVSSVSSSPRQTMDYDDEETDSDEDIRETYGYDMKDTASVKSSSSLEPNLFCDEEIPIKSEEVVTHMWTAPSFCAEHAYSSASKSCSQGSSTPRKQPRKSPLVPRSLEPPVLELSPGAKAQLEELMMVGDLLEVSLDETQHIWRILQATHPPSEDRFLHIMEDDSMEEKPLKVKGKDSSEKKRKRKLEKVEQLFGEGKQKSKELKKMDKPRKKKLKLGADKSKELNKLAKKLAKEEERKKKKEKAAAAKVELVKESTEKKREKKVLDIPSKYDWSGAEESDDENAVCAAQNCQRPCKDKVDWVQCDGGCDEWFHQVCVGVSPEMAENEDYICINCAKKQGPVSPGPAPPPSFIMSYKLPMEDLKETS
Regarding B4, the binding result with Smad3 is listed as “binds”.

B5: HEF1 M2/N (aa 651-759) (protein, human, UniProt Q14511 651-759, looked up)
chain: ENIMKQNKMQLEHHQLSQFQLLEQEITKPVENDISKWKPSQSLPTTNSGVSAQDRQLLCFYYDQCETHFISLLNAIDALFSCVSSAQPPRIFVAHSKFVILSAHKLVFI
Take B5: the binding entry in the assay with Smad3C (aa 231-424) was “binds”.

B6: HEF1 M2 (aa 651-834) (protein, human, UniProt Q14511 651-834, looked up)
chain: ENIMKQNKMQLEHHQLSQFQLLEQEITKPVENDISKWKPSQSLPTTNSGVSAQDRQLLCFYYDQCETHFISLLNAIDALFSCVSSAQPPRIFVAHSKFVILSAHKLVFIGDTLTRQVTAQDIRNKVMNSSNQLCEQLKTIVMATKMAALHYPSTTALQEMVHQVTDLSRNAQLFKRSLLEMATF
B6: the binding result with Smad3C (aa 231-424) is “binds”.

B7: Ran-GTP binding protein 5, clone S1+32 (protein, human, UniProt O00410 230-1097, looked up)
chain: YQNDDSVLKSLVEIADTVPKYLRPHLEATLQLSLKLCGDTSLNNMQRQLALEVIVTLSETAAAMLRKHTNIVAQTIPQMLAMMVDLEEDEDWANADELEDDDFDSNAVAGESALDRMACGLGGKLVLPMIKEHIMQMLQNPDWKYRHAGLMALSAIGEGCHQQMEGILNEIVNFVLLFLQDPHPRVRYAACNAVGQMATDFAPGFQKKFHEKVIAALLQTMEDQGNQRVQAHAAAALINFTEDCPKSLLIPYLDNLVKHLHSIMVLKLQELIQKGTKLVLEQVVTSIASVADTAEEKFVPYYDLFMPSLKHIVENAVQKELRLLRGKTIECISLIGLAVGKEKFMQDASDVMQLLLKTQTDFNDMEDDDPQISYMISAWARMCKILGKEFQQYLPVVMGPLMKTASIKPEVALLDTQDMENMSDDDGWEFVNLGDQQSFGIKTAGLEEKSTACQMLVCYAKELKEGFVEYTEQVVKLMVPLLKFYFHDGVRVAAAESMPLLLECARVRGPEYLTQMWHFMCDALIKAIGTEPDSDVLSEIMHSFAKCIEVMGDGCLNNEHFEELGGILKAKLEEHFKNQELRQVKRQDEDYDEQVEESLQDEDDNDVYILTKVSDILHSIFSSYKEKVLPWFEQLLPLIVNLICPHRPWPDRQWGLCIFDDVIEHCSPASFKYAEYFLRPMLQYVCDNSPEVRQAAAYGLGVMAQYGGDNYRPFCTEALPLLVRVIQSADSKTKENVNATENCISAVGKIMKFKPDCVNVEEVLPHWLSWLPLHEDKEEAVQTFNYLCDLIESNHPIVLGPNNTNLPKIFSIIAEGEMHEAIKHEDPCAKRLANVVRQVQTSGGLWTECIAQLSPEQQAAIQELLNSA
Take B7: the binding entry in assay [1] was “binds”.
